Measurements: patent US8748117B2, “Probe for detection and quantification of nitric oxide, and method for detecting and quantifying nitric oxide using the same” (Japan Science and Technology Agency, priority 2004, dated 2014)
“Also recorded” adds a separate entry of the source. At least one compound was matched to its structure with a doubt left. Peptide text beside a SMILES is read from it.

Key:
[1] = tested on: endothelial cells; assay: NOA-2 versus NOA-1 response in endothelial cells; format: cell-based, bovine; conditions: 1 μM bradykinin
[2] = tested on: endothelial cells from bovine pulmonary artery; assay: NOA-1 CFP/YFP emission ratio in vascular endothelial cells; format: cell-based; conditions: 1 nM bradykinin; endothelial cells expressing NOA-1
Experimental: (1) NOA-1 was expressed in endothelial cells from bovine pulmonary artery cultured in a serum-supplemented media. […] This is based on difference of basal NO concentration between CHO-K1 cell and vascular endothelial cell. (3) Endothelial cells and CHO-K1 cells were pretreated with an inhibitor for nitric oxide synthase (NOS), 1 mM L-NAME and the CFP/YFP emission ratio of NOA-1 was observed.
(4) The response of NOA-1 for excess NOC-7 between the endothelial and CHO-K1 cells was compared.
We stimulated the endothelial and CHO-K1 cells with 10 μM NOC-7, which generates enough concentration of NO to immediately saturate the NOA-1 response. […] As a result, in endothelial cells, the obtained change in the emission ratio upon the excess NOC-7 stimulation was actually only one-third of that in CHO-K1 cells (FIG. 13B).
(6) The basal concentration of NO in each vascular endothelial cell was measured. We first inhibited endogenous eNOS with 1 mM L-NAME to remove the basal NO and cGMP generated by the basal NO. […] To quantitate the basal concentration of NO, we subsequently added various concentrations of NO to each endothelial cell, in which eNOS activity was inhibited with L-NAME. […] Based on the obtained dose-response of NOA-1 for various concentrations of NO, we measured 1 nM of the basal NO concentration generated in each endothelial cell.

For `NC(N)=NCCC[C@H](NC(=O)[C@H](Cc1ccccc1)NC(=O)[C@@H]1CCCN1C(=O)[C@H](CO)NC(=O)[C@H](Cc1ccccc1)NC(=O)CNC(=O)[C@@H]1CCCN1C(=O)[C@@H]1CCCN1C(=O)[C@@H](N)CCCN=C(N)N)C(=O)O` [bradykinin] (H-RPPGFSPFR-OH), the “response of NOA-2” value [1] was “responded; also recorded: transient response” and the CFP/YFP emission ratio [2] was “transient change”.
